The values that follow come from US20110003888A1, “HOPS EXTRACTION METHODS AND MIXTURES” (Bioactives, Inc., priority 2007, published 2011).

Usually Papp stands for a coefficient for how fast a substance crosses the barrier. The low end stands for slow passage, the high end for fast passage.

This series in a line: in vitro. The settings on record: human, Caco-2. As for the experimental part: To test the permeability of xanthohumol across Caco-2 cell monolayers, Caco-2 cell monolayers were grown to confluence on collagen-coated, microporous, polycarbonate membranes in 12-well Costar Transwell® plates. Details of the plates and their certification are shown below in Table 3. The test article was also the aqueous xanthohumol formulation, and the dosing concentration was 2 μM in the assay buffer (HBSSg) as in the previous example. Cell monolayers were dosed on the apical side (A-to-B) or basolateral side (B-to-A) and incubated at 37° C. with 5% CO2 in a humidified incubator. Samples were taken from the donor chamber at 120 minutes, and samples from the receiver chamber were collected at 60 and 120 minutes. Each determination was performed in duplicate. Lucifer yellow permeability was also measured for each monolayer after being subjected to the test article to ensure no damage was inflicted to the cell monolayers during the permeability experiment. All samples were assayed for Xanthohumol by LC/MS/MS using electrospray ionization. The apparent permeability (Papp), and percent recovery were calculated as described above.

`CC(C)NCC(O)COc1ccc(CC(N)=O)cc1` (stereo not shown) [Atenolol] had an apparent permeability coefficient (Papp) of 0.3 ×10⁻⁶ cm/s.
